Reference: the supplement of paper PMC4635364
Some of the results follow. Single values are uncertain here, since repeats match poorly.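 ReNCell VM, a human fetal ventral-midbrain neural progenitor line, was differentiated without mitogens. Blinded raters scored images stained for doublecortin (early neurons) or tyrosine hydroxylase (dopaminergic neurons) against untreated wells (0 = no change). Scores were averaged across repeats and both raters, and compounds averaging 2 or more were selected as hits for retesting.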

tested on: ReNCell VM; experiment: dopaminergic neuron differentiation score (TH+ cell fraction vs untreated, manual image score) (score (0 to 3)); higher = more TH+ dopaminergic neuron differentiation; settings: library: Natural; 2 uM; 4 weeks; BDNF 10 ng/ml + GDNF 10 ng/ml

Dopaminergic neuron differentiation score, inactive:
COc1ccc([C@H]2O[C@@H](c3ccc(OC)c(OC)c3)[C@H](C)[C@@H]2C)cc1OC [2,5-Bis-(3,4-dimethoxy-phenyl)-3,4-dimethyl-tetrahydro-furan] 0, Oc1cc2c(cc1O)C1c3ccc(O)c(O)c3OCC1(O)C2 (configuration not stated) [haematoxylin] 0, O=C1C=CC2=C3c4cc(O)c(O)cc4CC3(O)COC2=C1O (configuration not stated) [haematein] 0, COc1ccc2cc([C@H](C)C(=O)O)ccc2c1 [naproxen] 0

same assay, conditions: library: Prestwick; 2 uM; 4 weeks; BDNF 10 ng/ml + GDNF 10 ng/ml

Dopaminergic neuron differentiation score, inactive:
O=C(Nc1cccc2c(=O)cc(-c3nnn[nH]3)oc12)c1ccc(OCCCCc2ccccc2)cc1 [Pranlukast] 0, Cc1cc2c(s1)Nc1ccccc1N=C2N1CCN(C)CC1 [Olanzapine] 0, CCCCOc1cc(C(=O)NCCN(CC)CC)c2ccccc2n1 [Dibucaine] 0, C=CC1=C(C(=O)O)N2C(=O)[C@@H](NC(=O)/C(=N\OCC(=O)O)c3csc(N)n3)[C@H]2SC1 [Cefixime] 0, CCCCOC(=O)c1ccc(O)cc1 [Butylparaben] 0, Clc1ccc(Nc2nnc(Cc3ccncc3)c3ccccc23)cc1 [Vatalanib] 0

same assay, conditions: library: Spectrum; 2 uM; 4 weeks; BDNF 10 ng/ml + GDNF 10 ng/ml

Dopaminergic neuron differentiation score, inactive:
N=C(N)NCCN1CCCCCCC1 0, COC(=O)C1=C(C)NC(C)=C(C(=O)OCC(C)C)C1c1ccccc1[N+](=O)[O-] (configuration not stated) 0, CCc1nn(CCCN2CCN(c3cccc(Cl)c3)CC2)c(=O)n1CCOc1ccccc1 0, COc1ccc(-c2cc(=O)c3c(O)cc(OC)c(OC)c3o2)c(OC)c1 1, C[C@@H]1O[C@@H](OC[C@H]2O[C@@H](Oc3c(-c4ccc(O)c(O)c4)oc4cc(O)cc(O)c4c3=O)[C@H](O)[C@@H](O)[C@@H]2O)[C@H](O)[C@H](O)[C@H]1O 0, CCOC(=O)N1CCC(=C2c3ccc(Cl)cc3CCc3cccnc32)CC1 0, Oc1ccc(Cl)c2c1CCC2 0, O=C(O)CN1C(=O)c2cccc3cccc(c23)C1=O 0, OC[C@@H](O)[C@@H](O)[C@H](O)[C@@H](O)CO 0, CC(C)(CO)C(O)C(=O)NCCCO (configuration not stated) 0, CC1=CCc2c(cc3oc(C)cc(=O)c3c2O)OC1 0, CC(C)COC(=O)c1ccc(N)cc1 1, COC(=O)c1c(OC)cc2c(c1C)Oc1c(Cl)c(O)c(Cl)c(C)c1C(=O)O2 0, CN1C(=O)CC(c2ccccc2)C1=O (configuration not stated) 0, CC(=O)/C(=C\c1ccccc1)CC(=O)O 0, O=C(c1ccc(OCCN2CCCCC2)cc1)c1c(-c2ccc(O)cc2)sc2cc(O)ccc12 0, CC(C)(C)NC(=O)[C@H]1CC[C@H]2[C@@H]3CC[C@H]4NC(=O)C=C[C@]4(C)[C@H]3CC[C@]12C 0
